PubChem BioAssay AID743121 – NCATS – 2013
Here is one part, drawn at random, of about 26,000 reagents tested. In the full data, 167 (0.63%) were called active. 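Calls are per gene from RSA p-values that are not deposited; an individual active-marked siRNA can sensitise only weakly.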 Entries without a mark were called inactive. The numbers tell different reagents against one gene apart.

- Aim: 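Genes whose silencing strengthens cell killing by camptothecin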 (primary screen)
- System: MDA-MB-231 cells, a human breast cancer line
- Reagent: single siRNA against human genes, 20 nM siRNA (0.8 pmol per well)
- Time to read-out: 120 h (drug added 48 h after transfection, read 72 h later)
- Conditions: camptothecin 20 nM (about EC30) for 72 h; vehicle 0.1% DMSO in parallel plates
- Read-out: 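Cell viability by ATP luminescence (CellTiter-Glo) as % of non-targeting siRNA wells, and the log2 ratio of viability without drug over viability with camptothecin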
- Reading the numbers: log2 vehicle/camptothecin viability: higher = stronger sensitisation to camptothecin; viability with camptothecin and viability without drug: higher = more viable cells
- Hit rule: 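Each gene scored by redundant siRNA activity (RSA) over its individual siRNA ratios; a gene is called active at p < 0.001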

target	reagent no.	log2 vehicle/camptothecin viability	viability with camptothecin (% of control)	viability without drug (% of control)
CSMD1 (CUB and Sushi multiple domains 1)	1	-0.173	108	95.9
CSMD1 (CUB and Sushi multiple domains 1)	2	-0.524	72.7	50.6
CSMD1 (CUB and Sushi multiple domains 1)	3	-0.37	85.1	65.8
CSMD1 (CUB and Sushi multiple domains 1)	4	-0.175	107	94.7
BRAF (B-Raf proto-oncogene, serine/threonine kinase)	1	0.00985	83.3	83.9
BRAF (B-Raf proto-oncogene, serine/threonine kinase)	2	-0.181	52.6	46.4
BRAF (B-Raf proto-oncogene, serine/threonine kinase)	3	0.0354	76.8	78.7
BRAF (B-Raf proto-oncogene, serine/threonine kinase)	4	-0.292	90.7	74
P2RY11 (purinergic receptor P2Y11)	1	-0.816	16.4	9.3
P2RY11 (purinergic receptor P2Y11)	2	-0.379	89.2	68.6
P2RY11 (purinergic receptor P2Y11)	3	0.589	11.3	16.9
P2RY11 (purinergic receptor P2Y11)	4	-0.474	53.3	38.4
SMARCD3 (SWI/SNF related BAF chromatin remodeling complex subunit D3)	1	-0.302	34.6	28.1
SMARCD3 (SWI/SNF related BAF chromatin remodeling complex subunit D3)	2	-0.267	67.6	56.1
SMARCD3 (SWI/SNF related BAF chromatin remodeling complex subunit D3)	3	-0.421	64.4	48.1
SMARCD3 (SWI/SNF related BAF chromatin remodeling complex subunit D3)	4	0.685	16.1	25.9
CALCR (calcitonin receptor)	1	-0.0186	94.9	93.7
CALCR (calcitonin receptor)	2	-0.108	58.3	54.1
CALCR (calcitonin receptor)	3	-0.595	82.8	54.8
CALCR (calcitonin receptor)	4	-0.27	86.1	71.4
EPO (erythropoietin)	1	-0.129	96.8	88.5
EPO (erythropoietin)	2	-0.02	71	70
EPO (erythropoietin)	3	-0.107	56.9	52.8
EPO (erythropoietin)	4	0.12	43.2	46.9
TRPA1	1	-0.109	64.3	59.6
TRPA1	2	0.0173	45.1	45.7
TRPA1	3	0.24	73.7	87
TRPA1	4	-0.139	108	98
SLC10A4	1	0.16	94.9	106
SLC10A4	2	0.0469	29.7	30.7
SLC10A4	3	-0.458	82.5	60
SLC10A4	4	0.0147	95.9	96.9
ERMAP	1	-0.574	55.2	37.1
ERMAP	2	-0.249	91.4	76.9
ERMAP	3	-0.179	90.1	79.6
ERMAP	4	-0.733	44.8	27
P2RY4 (pyrimidinergic receptor P2Y4)	1	-0.143	98.8	89.5
P2RY4 (pyrimidinergic receptor P2Y4)	2	-0.288	115	94.4
P2RY4 (pyrimidinergic receptor P2Y4)	3	-0.113	73.3	67.8
P2RY4 (pyrimidinergic receptor P2Y4)	4	-0.0283	35	34.3
PPP1CC (protein phosphatase 1 catalytic subunit gamma)	1	-0.156	96	86.2
PPP1CC (protein phosphatase 1 catalytic subunit gamma)	2	-0.399	103	77.9
PPP1CC (protein phosphatase 1 catalytic subunit gamma)	3	-0.0355	107	104
PPP1CC (protein phosphatase 1 catalytic subunit gamma)	4	1.5	16.7	47.2

Continued; the last 6 above are carried over.
target	reagent no.	log2 vehicle/camptothecin viability	viability with camptothecin (% of control)	viability without drug (% of control)
P2RY4 (pyrimidinergic receptor P2Y4)	3	-0.113	73.3	67.8
P2RY4 (pyrimidinergic receptor P2Y4)	4	-0.0283	35	34.3
PPP1CC (protein phosphatase 1 catalytic subunit gamma)	1	-0.156	96	86.2
PPP1CC (protein phosphatase 1 catalytic subunit gamma)	2	-0.399	103	77.9
PPP1CC (protein phosphatase 1 catalytic subunit gamma)	3	-0.0355	107	104
PPP1CC (protein phosphatase 1 catalytic subunit gamma)	4	1.5	16.7	47.2
MASP2 (MBL associated serine protease 2)	1	0.105	116	125
MASP2 (MBL associated serine protease 2)	2	-0.141	68.8	62.4
MASP2 (MBL associated serine protease 2)	3	0.133	60	65.8
MASP2 (MBL associated serine protease 2)	4	0.0333	78.9	80.8
MASP2 (MBL associated serine protease 2)	5	-0.0157	87.9	87
MASP2 (MBL associated serine protease 2)	6	-0.0813	122	115
MEP1B (meprin A subunit beta)	1	-0.586	78.5	52.3
MEP1B (meprin A subunit beta)	2	-0.144	99.6	90.1
MEP1B (meprin A subunit beta)	3	-0.244	105	88.8
MEP1B (meprin A subunit beta)	4	0.162	96	107
P2RY1 (purinergic receptor P2Y1)	1	0.186	101	114
P2RY1 (purinergic receptor P2Y1)	2	-0.0848	108	102
P2RY1 (purinergic receptor P2Y1)	3	-0.349	93.9	73.7
P2RY1 (purinergic receptor P2Y1)	4	0.454	56.7	77.7
BCR (BCR activator of RhoGEF and GTPase)	1	-0.183	80.6	71
BCR (BCR activator of RhoGEF and GTPase)	2	0.156	48	53.4
BCR (BCR activator of RhoGEF and GTPase)	3	0.145	5.87	6.49
BCR (BCR activator of RhoGEF and GTPase)	4	-0.14	43.7	39.7
MUC4 (mucin 4, cell surface associated)	1	0.21	74	85.6
MUC4 (mucin 4, cell surface associated)	2	-0.459	89.8	65.3
MUC4 (mucin 4, cell surface associated)	3	-0.395	55.2	42
ATL1 (atlastin GTPase 1)	1	-0.154	106	95.2
ATL1 (atlastin GTPase 1)	2	0.389	75.9	99.4
ATL1 (atlastin GTPase 1)	3	-0.0278	97	95.1
ATL1 (atlastin GTPase 1)	4	-0.507	86.2	60.7
